Source: article PMC8263009

What was measured:
[1] = molecular target: CK1a, endogenous (Neurospora (endogenous in Neurospora extracts)); assay: co-IP; CK1a antibody (endogenous CK1a) and GammaBind G Sepharose on 2 mg Neurospora extract; strains grown in constant light at 21 and 29°C; blot for FRQ
[2] = molecular target: recombinant Flag-tagged CK1a (Neurospora); assay: pull-down; purified Flag-CK1a fusion protein and Flag antibody incubated with 2 mg extract of wild-type Neurospora grown in constant light at 25, 30 and 34°C; GammaBind G Sepharose; blot for FRQ; only the target purified
[3] = molecular target: Myc-CK1a (Myc.His.CK1a expressed from the qa-2 promoter) (Neurospora); assay: co-IP; c-Myc monoclonal antibody and GammaBind G Sepharose on 2 mg Neurospora extract; cultures grown in constant light with quinic acid at 25, 30 and 34°C; wild-type, ckb^RIP and M19 strains that express Myc-CK1a; blot for FRQ; extraction buffer 50 mM HEPES pH 7.4, 137 mM NaCl, 10% glycerol

binding [1]: binds | binding [2]: binds | binding [3]: binds
B1: FREQUENCY (FRQ), wild type (protein, UniProt P19970 1-989)
chain: MADSGDKSQGMRPPPFDSRGHPLPRRASPDKSITLENHRLARDTSSRVTSSSALGVTESQPQLKSSPTRRNSSGESEPTNWFNQSNRNPAAAFHDESHIMEVDPPFYQKETDSSNEESRYPPGRNPVHPPGGVQLPGFRPVAAHSSAADDYRSVIDDLTVENKRLKEELKRYKQFGSDVMRKEKLFEIKVHGLPRRKKRELEATLRDFAASLGDSSESTSQRRKTGRHGTAVHSSGVSLSKHDSSSSSRSRPVDSAYNSMSTGRSSHAPHSSGPSLGRPSLTRAKSVGTQKVENYLRDTPDGLLPHHIVMTDKEKKKLVVRRLEQLFTGKISGRNMQRNQSMPSMDAPLAPEGTNMAPPRPPPEGLREACIQLQDGDNPRKNRSSKDNGSASNSGGDQTELGGTGTGSGDGSGSGGRTGNNTSPPGAIAPDQRPTRPRDLDPDRVQIPSENMDYIRHLGLVSPEFLQGSRTSYQDVAPDAEGWVYLNLLCNLAQLHMVNVTPSFIRQAVSEKSTKFQLSADGRKIRWRGGTDGTKFSSDSSEDKSQQSPMTEDTEDGSDKNGRRKKRKTQQASSEIGRFGPSRSPSDTFHYKPMFVHRNSSSIETSLEESMSQGSEDAVDESNMGNSKWDFSGSGTTQQRRKRRYDGAIVYYTGAPFCTDLSGDPGDMSPTAQMTAGREVEGSGSGDEVEHVLQRTLSGSSLPIRPLSDDRARVAEVLDFDPGNPPELVADDGSSPNDEDFVFPWCEDPAKVRIQPIAKEVMEPSGLGGVLPDDHFVMLVTTRRVVRPILQRQLSRSTTSEDTAEFIAERLAAIRTSSPLPPRSHRLTVAPLQVEYVSGQFRRLNPAPLPPPAIFYPPFSTDSSWDDGDDLASDDEEVEEVEEDSYSEGQISRRANPHFSDNNTYMRKDDLAFDTETDVRMDSDDNRLSDSGHNMRAMMPRAEAVDGDDSPLAAVTGKEVDMLHTGSSVATAGGAESGYSSSMEDVSSS

binding [1]: binds
B2: FRQ Q494N (FCD2 mutant) (protein, UniProt P19970 1-989)
chain: B1 chain with Q494N

Positions count from the first letter of the chain named. In names and notes the source's numbering stands. Results are given in words; binding and its absence hold for the method and conditions named. In cells and extracts the contact can be indirect. Binding can be weak; no strength is given. Each block holds one binder with its values, some of them ahead of it.
